# This is one part of the list.
# Legend:
# Assay in all cases: glycan array binding signal (z-score within array); higher = stronger binding
# Settings in all cases: glycan notation: IUPAC condensed, linker removed
# [1] = biological target: Neu5Ac(a2-3)Gal(b1-3)]Neu5Ac(a2-3)Gal(b1-4)]GlcNAc
# Method in brief: (§1)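 Glycan array data were curated from 3228 arrays in the Consortium for Functional Glycomics database and kept only where the protein sequence was available. Glycan names were converted to IUPAC-condensed notation, and columns mapping to the same glycan were averaged. The binding signal is a within-array Z-score, averaged across arrays of the same protein sequence at different concentrations or buffers and across linkers. Negative Z-scores can be read as non-binding.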
# [2] = biological target: Neu5Ac(a2-3)Gal(b1-4)Glc
# Method in brief: as §1
# [3] = biological target: Neu5Ac(a2-3)Gal(b1-4)GlcNAc
# Method in brief: as §1
# [4] = biological target: Neu5Ac(a2-3)Gal(b1-4)GlcNAc(b1-2)Man
# Method in brief: as §1
# [5] = biological target: Neu5Ac(a2-3)Gal(b1-4)GlcNAc(b1-2)Man(a1-3)[GlcNAc(b1-4)][Neu5Ac(a2-3)Gal(b1-4)GlcNAc(b1-2)Man(a1-6)]Man(b1-4)GlcNAc(b1-4)GlcNAc
# Method in brief: as §1
# [6] = biological target: Neu5Ac(a2-3)Gal(b1-4)GlcNAc(b1-2)Man(a1-3)[Neu5Ac(a2-3)Gal(b1-4)GlcNAc(b1-2)Man(a1-6)]Man(b1-4)GlcNAc(b1-4)GlcNAc
# Method in brief: as §1
# [7] = biological target: Neu5Ac(a2-3)Gal(b1-4)GlcNAc(b1-2)Man(a1-3)[Neu5Ac(a2-3)Gal(b1-4)GlcNAc(b1-2)Man(a1-6)]Man(b1-4)GlcNAc(b1-4)[Fuc(a1-6)]GlcNAc
# Method in brief: as §1
# [8] = biological target: Neu5Ac(a2-3)Gal(b1-4)GlcNAc(b1-2)Man(a1-3)[Neu5Ac(a2-6)Gal(b1-4)GlcNAc(b1-2)Man(a1-6)]Man(b1-4)GlcNAc(b1-4)GlcNAc
# Method in brief: as §1
# [9] = biological target: Neu5Ac(a2-3)Gal(b1-4)GlcNAc(b1-2)[Neu5Ac(a2-3)Gal(b1-4)GlcNAc(b1-4)]Man(a1-3)[GlcNAc(b1-4)][Neu5Ac(a2-3)Gal(b1-4)GlcNAc(b1-2)[Neu5Ac(a2-3)Gal(b1-4)GlcNAc(b1-6)]Man(a1-6)]Man(b1-4)GlcNAc(b1-4)GlcNAc
# Method in brief: as §1
# [10] = biological target: Neu5Ac(a2-3)Gal(b1-4)GlcNAc(b1-2)[Neu5Ac(a2-3)Gal(b1-4)GlcNAc(b1-4)]Man(a1-3)[GlcNAc(b1-4)][Neu5Ac(a2-3)Gal(b1-4)GlcNAc(b1-4)Man(a1-6)]Man(b1-4)GlcNAc(b1-4)GlcNAc
# Method in brief: as §1
# [11] = biological target: Neu5Ac(a2-3)Gal(b1-4)GlcNAc(b1-2)[Neu5Ac(a2-3)Gal(b1-4)GlcNAc(b1-6)]Man(a1-6)[Neu5Ac(a2-3)Gal(b1-4)GlcNAc(b1-2)Man(a1-3)][GlcNAc(b1-4)]Man(b1-4)GlcNAc(b1-4)GlcNAc
# Method in brief: as §1
# [12] = biological target: Neu5Ac(a2-3)Gal(b1-4)GlcNAc(b1-3)Gal
# Method in brief: as §1
# [13] = biological target: Neu5Ac(a2-3)Gal(b1-4)GlcNAc(b1-3)Gal(b1-3)GlcNAc
# Method in brief: as §1
# [14] = biological target: Neu5Ac(a2-3)Gal(b1-4)GlcNAc(b1-3)Gal(b1-4)GlcNAc
# Method in brief: as §1
# [15] = biological target: Neu5Ac(a2-3)Gal(b1-4)GlcNAc(b1-3)Gal(b1-4)GlcNAc(b1-2)Man(a1-3)[Neu5Ac(a2-3)Gal(b1-4)GlcNAc(b1-3)Gal(b1-4)GlcNAc(b1-2)Man(a1-6)]Man(b1-4)GlcNAc(b1-4)GlcNAc
# Method in brief: as §1
# [16] = biological target: Neu5Ac(a2-3)Gal(b1-4)GlcNAc(b1-3)Gal(b1-4)GlcNAc(b1-3)Gal(b1-4)GlcNAc
# Method in brief: as §1
# [17] = biological target: Neu5Ac(a2-3)Gal(b1-4)GlcNAc(b1-3)Gal(b1-4)GlcNAc(b1-3)Gal(b1-4)GlcNAc(b1-2)Man(a1-3)[Neu5Ac(a2-3)Gal(b1-4)GlcNAc(b1-3)Gal(b1-4)GlcNAc(b1-3)Gal(b1-4)GlcNAc(b1-2)Man(a1-6)]GalNAc
# Method in brief: as §1
# [18] = biological target: Neu5Ac(a2-3)Gal(b1-4)GlcNAc(b1-3)Gal(b1-4)GlcNAc(b1-3)GalNAc
# Method in brief: as §1
# [19] = biological target: Neu5Ac(a2-3)Gal(b1-4)GlcNAc(b1-3)Gal(b1-4)GlcNAc(b1-3)[Neu5Ac(a2-3)Gal(b1-4)GlcNAc(b1-3)Gal(b1-4)GlcNAc(b1-6)]GalNAc
# Method in brief: as §1
# [20] = biological target: Neu5Ac(a2-3)Gal(b1-4)GlcNAc(b1-3)Gal(b1-4)GlcNAc(b1-6)[Gal(b1-3)]GalNAc
# Method in brief: as §1
# [21] = biological target: Neu5Ac(a2-3)Gal(b1-4)GlcNAc(b1-3)Gal(b1-4)[Fuc(a1-3)]GlcNAc
# Method in brief: as §1
# [22] = biological target: Neu5Ac(a2-3)Gal(b1-4)GlcNAc(b1-3)GalNAc
# Method in brief: as §1
# [23] = biological target: Neu5Ac(a2-3)Gal(b1-4)GlcNAc(b1-3)[Neu5Ac(a2-3)Gal(b1-4)GlcNAc(b1-6)]GalNAc
# Method in brief: as §1
binder,measurement,setting,value
EUL D1A first (Oryza sativa) (protein) MFGFGHHHNQAPAAPSDPNQIFKIFCRANENYCLTVRDSAVVLAPVNPKDEHQHWFKDMRFSTKVKDGEGMPAFALVNKATGLAVKHSLGQSHPVKLVPFNPEYEDASVLWTESKDVGKGFRCIRMVNNTRLNLDAFHGDKDHGGVRDGTTVVLWEWCKGDNQSWKILPWGPEAHSSSPGAATILEQKLISEEDLNSAVDHHHHHH,glycan array binding signal (z-score),[1],-0.666
same,glycan array binding signal (z-score),[2],1.98
same,glycan array binding signal (z-score),[3],-0.816
same,glycan array binding signal (z-score),[4],-0.15
same,glycan array binding signal (z-score),[5],0.47
same,glycan array binding signal (z-score),[6],0.155
same,glycan array binding signal (z-score),[7],0.115
same,glycan array binding signal (z-score),[8],-0.281
same,glycan array binding signal (z-score),[9],-1.13
same,glycan array binding signal (z-score),[10],-0.352
same,glycan array binding signal (z-score),[11],-0.447
same,glycan array binding signal (z-score),[12],0.293
same,glycan array binding signal (z-score),[13],-0.65
same,glycan array binding signal (z-score),[14],-1.11
same,glycan array binding signal (z-score),[15],-0.845
same,glycan array binding signal (z-score),[16],-1.75
same,glycan array binding signal (z-score),[17],1.04
same,glycan array binding signal (z-score),[18],0.43
same,glycan array binding signal (z-score),[19],-1.42
same,glycan array binding signal (z-score),[20],0.24
same,glycan array binding signal (z-score),[21],-0.958
same,glycan array binding signal (z-score),[22],0.212
same,glycan array binding signal (z-score),[23],0.425

# An excerpt of these results, with tabs.
binder	measurement	setting	value
EUL D1A first (Oryza sativa) (protein) MFGFGHHHNQAPAAPSDPNQIFKIFCRANENYCLTVRDSAVVLAPVNPKDEHQHWFKDMRFSTKVKDGEGMPAFALVNKATGLAVKHSLGQSHPVKLVPFNPEYEDASVLWTESKDVGKGFRCIRMVNNTRLNLDAFHGDKDHGGVRDGTTVVLWEWCKGDNQSWKILPWGPEAHSSSPGAATILEQKLISEEDLNSAVDHHHHHH	glycan array binding signal (z-score)	[12]	0.293
same	glycan array binding signal (z-score)	[22]	0.212

# From the supplement of paper PMC8728848
